Measured values as given in the supplement of paper PMC10849652.
The list shows a part of the results.

By UniProt entry, the sequences of proteins in these tests, tags left out. Where a name states a change or a piece, a line headed by the entry shows the natural chain unless it says otherwise.
UniProt Q9UKB3: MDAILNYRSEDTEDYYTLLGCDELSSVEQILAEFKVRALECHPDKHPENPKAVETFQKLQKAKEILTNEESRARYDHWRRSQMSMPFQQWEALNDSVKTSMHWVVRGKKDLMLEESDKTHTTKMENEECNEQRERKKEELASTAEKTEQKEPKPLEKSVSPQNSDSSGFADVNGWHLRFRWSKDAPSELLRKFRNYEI
UniProt Q9Y485, whole entry, looked up: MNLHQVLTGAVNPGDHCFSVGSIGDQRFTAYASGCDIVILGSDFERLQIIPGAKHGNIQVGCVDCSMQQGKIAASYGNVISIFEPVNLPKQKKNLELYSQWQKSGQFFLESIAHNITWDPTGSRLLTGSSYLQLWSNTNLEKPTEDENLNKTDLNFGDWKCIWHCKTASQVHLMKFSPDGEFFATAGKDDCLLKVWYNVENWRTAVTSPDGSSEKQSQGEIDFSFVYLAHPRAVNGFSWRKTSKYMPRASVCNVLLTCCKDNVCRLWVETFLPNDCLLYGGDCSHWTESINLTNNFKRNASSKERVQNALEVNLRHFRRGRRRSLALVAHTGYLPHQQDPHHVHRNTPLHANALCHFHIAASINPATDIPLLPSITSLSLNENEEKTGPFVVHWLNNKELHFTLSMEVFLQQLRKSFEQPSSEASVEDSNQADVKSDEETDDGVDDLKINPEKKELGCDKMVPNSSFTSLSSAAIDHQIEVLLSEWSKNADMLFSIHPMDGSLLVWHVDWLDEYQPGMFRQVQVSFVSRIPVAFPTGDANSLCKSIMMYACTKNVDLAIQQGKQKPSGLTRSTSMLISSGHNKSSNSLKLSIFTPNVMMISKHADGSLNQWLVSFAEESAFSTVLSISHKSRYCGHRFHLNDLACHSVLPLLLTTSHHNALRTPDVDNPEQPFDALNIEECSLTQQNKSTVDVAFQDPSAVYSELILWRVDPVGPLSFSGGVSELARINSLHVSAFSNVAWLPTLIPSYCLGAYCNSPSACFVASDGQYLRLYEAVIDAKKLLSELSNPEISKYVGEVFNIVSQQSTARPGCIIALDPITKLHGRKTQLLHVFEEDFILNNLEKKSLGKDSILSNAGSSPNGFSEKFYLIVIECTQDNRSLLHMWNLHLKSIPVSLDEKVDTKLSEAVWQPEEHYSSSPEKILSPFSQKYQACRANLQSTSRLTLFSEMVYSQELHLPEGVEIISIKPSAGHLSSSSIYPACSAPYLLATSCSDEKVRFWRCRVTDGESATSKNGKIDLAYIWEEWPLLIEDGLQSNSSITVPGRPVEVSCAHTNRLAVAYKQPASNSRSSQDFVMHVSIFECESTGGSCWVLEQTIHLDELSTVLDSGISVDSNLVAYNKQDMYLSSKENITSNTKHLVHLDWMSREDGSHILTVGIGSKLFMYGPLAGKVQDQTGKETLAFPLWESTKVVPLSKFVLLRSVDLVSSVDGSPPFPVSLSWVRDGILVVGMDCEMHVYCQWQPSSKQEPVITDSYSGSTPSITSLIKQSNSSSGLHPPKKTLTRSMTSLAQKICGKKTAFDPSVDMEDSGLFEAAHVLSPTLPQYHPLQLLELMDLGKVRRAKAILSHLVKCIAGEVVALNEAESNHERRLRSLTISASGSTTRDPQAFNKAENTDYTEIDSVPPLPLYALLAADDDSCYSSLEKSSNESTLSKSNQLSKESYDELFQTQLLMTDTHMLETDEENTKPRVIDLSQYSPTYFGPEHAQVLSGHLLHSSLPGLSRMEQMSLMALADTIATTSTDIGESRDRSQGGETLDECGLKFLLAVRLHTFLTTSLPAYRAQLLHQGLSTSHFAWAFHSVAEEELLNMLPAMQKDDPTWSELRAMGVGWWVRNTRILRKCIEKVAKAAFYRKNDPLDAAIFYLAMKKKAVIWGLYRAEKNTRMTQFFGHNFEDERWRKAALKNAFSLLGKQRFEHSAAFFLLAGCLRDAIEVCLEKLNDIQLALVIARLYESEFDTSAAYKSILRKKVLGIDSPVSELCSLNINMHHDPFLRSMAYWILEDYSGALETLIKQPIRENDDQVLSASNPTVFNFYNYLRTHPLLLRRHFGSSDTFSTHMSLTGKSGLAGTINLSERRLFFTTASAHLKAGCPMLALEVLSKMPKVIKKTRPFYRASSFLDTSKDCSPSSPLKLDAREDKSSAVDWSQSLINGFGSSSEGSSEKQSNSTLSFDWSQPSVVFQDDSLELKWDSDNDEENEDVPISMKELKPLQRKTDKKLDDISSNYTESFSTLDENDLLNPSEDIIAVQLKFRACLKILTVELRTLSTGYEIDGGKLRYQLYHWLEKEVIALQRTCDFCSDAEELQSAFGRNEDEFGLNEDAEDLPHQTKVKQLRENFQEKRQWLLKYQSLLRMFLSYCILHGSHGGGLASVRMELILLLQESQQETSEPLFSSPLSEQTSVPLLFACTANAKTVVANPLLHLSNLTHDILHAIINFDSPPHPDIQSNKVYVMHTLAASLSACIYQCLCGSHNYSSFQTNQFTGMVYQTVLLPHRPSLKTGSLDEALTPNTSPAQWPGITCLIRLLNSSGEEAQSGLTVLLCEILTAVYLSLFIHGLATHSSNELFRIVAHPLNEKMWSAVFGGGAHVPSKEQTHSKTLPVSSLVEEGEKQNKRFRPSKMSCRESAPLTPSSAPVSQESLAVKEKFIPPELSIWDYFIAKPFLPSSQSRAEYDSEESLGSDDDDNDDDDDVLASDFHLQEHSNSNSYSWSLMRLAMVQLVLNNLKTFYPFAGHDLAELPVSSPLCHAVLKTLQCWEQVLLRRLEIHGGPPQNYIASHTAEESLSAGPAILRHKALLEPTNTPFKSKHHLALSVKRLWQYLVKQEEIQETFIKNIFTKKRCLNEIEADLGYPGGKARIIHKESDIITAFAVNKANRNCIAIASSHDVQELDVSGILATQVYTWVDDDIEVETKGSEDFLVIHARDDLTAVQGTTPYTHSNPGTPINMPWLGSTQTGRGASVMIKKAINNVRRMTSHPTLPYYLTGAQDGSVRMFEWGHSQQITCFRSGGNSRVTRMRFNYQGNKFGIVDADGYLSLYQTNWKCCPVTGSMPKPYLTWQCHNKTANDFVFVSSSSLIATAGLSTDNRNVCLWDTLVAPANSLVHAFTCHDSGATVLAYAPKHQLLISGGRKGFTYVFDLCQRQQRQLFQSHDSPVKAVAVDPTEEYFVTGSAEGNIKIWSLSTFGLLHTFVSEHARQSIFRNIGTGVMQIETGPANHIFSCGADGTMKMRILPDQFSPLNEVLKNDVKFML
UniProt Q8TDJ6, whole entry, looked up: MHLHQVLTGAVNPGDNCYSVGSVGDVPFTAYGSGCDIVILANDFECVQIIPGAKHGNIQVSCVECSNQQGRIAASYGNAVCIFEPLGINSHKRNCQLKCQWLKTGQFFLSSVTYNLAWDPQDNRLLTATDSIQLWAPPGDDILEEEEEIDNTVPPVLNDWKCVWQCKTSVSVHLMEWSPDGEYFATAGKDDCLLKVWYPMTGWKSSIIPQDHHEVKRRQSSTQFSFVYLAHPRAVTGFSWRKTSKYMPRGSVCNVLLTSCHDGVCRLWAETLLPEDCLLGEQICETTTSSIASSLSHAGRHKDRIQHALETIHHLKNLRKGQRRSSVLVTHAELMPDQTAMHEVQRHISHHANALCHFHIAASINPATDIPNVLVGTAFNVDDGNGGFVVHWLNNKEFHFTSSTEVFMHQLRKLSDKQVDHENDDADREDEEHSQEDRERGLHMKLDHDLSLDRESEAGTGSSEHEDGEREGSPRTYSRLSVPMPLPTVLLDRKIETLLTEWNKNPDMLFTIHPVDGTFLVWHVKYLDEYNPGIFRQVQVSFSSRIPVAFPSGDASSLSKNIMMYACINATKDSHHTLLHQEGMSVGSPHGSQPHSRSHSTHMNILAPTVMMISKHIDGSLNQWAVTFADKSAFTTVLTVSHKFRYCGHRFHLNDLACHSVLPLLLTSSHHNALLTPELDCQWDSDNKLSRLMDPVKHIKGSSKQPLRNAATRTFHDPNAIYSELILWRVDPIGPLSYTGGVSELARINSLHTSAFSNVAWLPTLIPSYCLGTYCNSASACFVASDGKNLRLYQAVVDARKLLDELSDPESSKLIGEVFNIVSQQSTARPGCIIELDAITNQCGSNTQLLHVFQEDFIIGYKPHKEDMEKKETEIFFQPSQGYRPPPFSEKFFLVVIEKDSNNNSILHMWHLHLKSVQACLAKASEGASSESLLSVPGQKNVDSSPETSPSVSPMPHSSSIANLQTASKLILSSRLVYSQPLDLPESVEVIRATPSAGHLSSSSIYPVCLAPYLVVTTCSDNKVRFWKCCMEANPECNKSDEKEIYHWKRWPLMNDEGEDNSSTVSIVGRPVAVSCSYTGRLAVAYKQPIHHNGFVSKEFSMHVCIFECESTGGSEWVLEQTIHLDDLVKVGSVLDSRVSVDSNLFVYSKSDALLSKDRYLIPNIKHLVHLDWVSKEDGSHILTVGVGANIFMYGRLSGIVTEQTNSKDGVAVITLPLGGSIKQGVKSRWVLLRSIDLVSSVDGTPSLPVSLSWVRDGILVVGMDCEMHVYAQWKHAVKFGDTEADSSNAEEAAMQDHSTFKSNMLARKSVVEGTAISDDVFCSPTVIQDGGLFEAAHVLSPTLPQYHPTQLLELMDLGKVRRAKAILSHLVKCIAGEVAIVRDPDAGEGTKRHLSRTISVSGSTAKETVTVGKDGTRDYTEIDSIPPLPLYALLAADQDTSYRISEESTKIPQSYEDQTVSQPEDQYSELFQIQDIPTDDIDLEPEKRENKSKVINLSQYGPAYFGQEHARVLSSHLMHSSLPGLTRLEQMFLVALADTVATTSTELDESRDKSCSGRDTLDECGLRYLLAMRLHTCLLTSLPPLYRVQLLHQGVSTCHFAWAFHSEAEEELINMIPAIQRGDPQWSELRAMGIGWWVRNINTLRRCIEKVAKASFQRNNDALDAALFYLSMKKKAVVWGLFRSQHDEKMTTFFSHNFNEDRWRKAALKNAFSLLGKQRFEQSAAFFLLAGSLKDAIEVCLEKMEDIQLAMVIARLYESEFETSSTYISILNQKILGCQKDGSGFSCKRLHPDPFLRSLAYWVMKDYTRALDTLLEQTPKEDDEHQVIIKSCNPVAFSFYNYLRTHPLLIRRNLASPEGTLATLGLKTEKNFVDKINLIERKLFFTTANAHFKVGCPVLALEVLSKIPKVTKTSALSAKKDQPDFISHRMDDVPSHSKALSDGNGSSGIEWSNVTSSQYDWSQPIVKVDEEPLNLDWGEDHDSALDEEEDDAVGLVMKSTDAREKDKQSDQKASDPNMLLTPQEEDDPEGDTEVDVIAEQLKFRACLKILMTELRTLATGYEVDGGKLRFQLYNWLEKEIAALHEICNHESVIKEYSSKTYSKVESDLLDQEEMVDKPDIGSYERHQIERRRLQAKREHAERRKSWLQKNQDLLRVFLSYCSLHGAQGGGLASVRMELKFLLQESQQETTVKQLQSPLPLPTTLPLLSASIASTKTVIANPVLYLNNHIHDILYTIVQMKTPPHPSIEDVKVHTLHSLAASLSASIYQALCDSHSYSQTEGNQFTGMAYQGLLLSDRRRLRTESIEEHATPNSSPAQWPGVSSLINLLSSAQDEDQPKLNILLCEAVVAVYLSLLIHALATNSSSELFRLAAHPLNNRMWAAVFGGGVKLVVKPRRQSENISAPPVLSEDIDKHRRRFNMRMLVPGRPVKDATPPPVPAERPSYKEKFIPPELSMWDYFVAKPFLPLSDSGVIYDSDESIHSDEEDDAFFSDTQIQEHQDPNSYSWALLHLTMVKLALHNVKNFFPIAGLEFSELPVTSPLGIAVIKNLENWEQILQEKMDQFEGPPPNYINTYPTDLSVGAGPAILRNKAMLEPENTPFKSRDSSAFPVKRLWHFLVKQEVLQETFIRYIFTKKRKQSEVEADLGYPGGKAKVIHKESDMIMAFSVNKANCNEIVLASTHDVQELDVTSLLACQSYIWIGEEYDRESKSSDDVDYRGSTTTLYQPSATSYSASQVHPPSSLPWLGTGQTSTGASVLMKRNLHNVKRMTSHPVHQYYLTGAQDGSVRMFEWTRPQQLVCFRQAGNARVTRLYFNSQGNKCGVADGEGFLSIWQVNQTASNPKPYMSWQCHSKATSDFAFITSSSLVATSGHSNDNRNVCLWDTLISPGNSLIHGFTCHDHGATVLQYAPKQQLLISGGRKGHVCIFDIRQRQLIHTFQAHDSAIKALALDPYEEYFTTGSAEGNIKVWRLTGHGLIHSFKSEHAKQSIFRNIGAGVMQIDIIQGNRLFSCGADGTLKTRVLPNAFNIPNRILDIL
UniProt Q13268: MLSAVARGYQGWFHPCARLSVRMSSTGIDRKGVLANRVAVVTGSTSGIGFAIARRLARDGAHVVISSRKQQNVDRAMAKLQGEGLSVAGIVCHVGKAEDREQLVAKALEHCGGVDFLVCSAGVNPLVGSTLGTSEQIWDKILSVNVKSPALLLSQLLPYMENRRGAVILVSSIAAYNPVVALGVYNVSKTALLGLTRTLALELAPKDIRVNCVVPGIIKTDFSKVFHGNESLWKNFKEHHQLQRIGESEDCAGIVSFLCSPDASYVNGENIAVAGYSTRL

How the values were obtained:
Assay in all cases: log2 fold change, soluble protein after heating vs DMSO (PISA); higher = thermal stabilisation; K562 lysate, 10 uM; active = over 0.2 and 3.5 SD of the protein, either way, in both replicates (recomputed)
vemurafenib = compound: CCCS(=O)(=O)Nc1ccc(F)c(C(=O)c2c[nH]c3ncc(-c4ccc(Cl)cc4)cc23)c1F [vemurafenib]
Method in brief: (§1)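 K562 pellets were dounce-homogenised in PBS pH 7.4 containing 1 mM MgCl2, and the crude extract, at 1 mg/mL protein, was exposed to 10 μM compound for 30 min. Aliquots were heated for 3 min across 48°C-58°C, pooled, brought to 0.5% NP-40 at 4°C and spun at 21,000xg for 90 min, with the supernatant taken as soluble protein. TMTpro 16plex LC-MS/MS with equalised channel sums quantified that protein. Values are log-two fold changes in thermal stability relative to solvent controls, taken from duplicates.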

[1] = compound: CCCS(=O)(=O)Nc1ccc(F)c(C(=O)c2c[nH]c3ncc(Cl)cc23)c1F
Method in brief: as §1

barasertib = compound: CCN(CCCOc1ccc2c(Nc3cc(CC(=O)Nc4cccc(F)c4)[nH]n3)ncnc2c1)CCOP(=O)(O)O [barasertib]
Method in brief: as §1

[2] = compound: CC[C@@H]1C(=O)N(C)c2cnc(Nc3ccc(C(=O)NC4CCN(C)CC4)cc3OC)nc2N1C1CCCC1
Method in brief: as §1

volasertib = compound: CC[C@@H]1C(=O)N(C)c2cnc(Nc3ccc(C(=O)N[C@H]4CC[C@H](N5CCN(CC6CC6)CC5)CC4)cc3OC)nc2N1C(C)C [volasertib]
Method in brief: as §1

[3] = compound: CCn1c(C(=O)N(C2CC2)C2CC2)cc2c3c(ncn3C)c(Nc3cc(C)n(C)n3)nc21
Method in brief: as §1

[4] = compound: CCn1cc(-c2ccnc3[nH]c(-c4cccc(CN(C)C)c4)cc23)c(-c2ccc(NC(=O)N(C)C)cc2)n1
Method in brief: as §1

[5] = compound: CN1CCC(CNc2ccc3ncc(-c4cccc(OC(F)(F)F)c4)n3n2)CC1
Method in brief: as §1

saracatinib = compound: CN1CCN(CCOc2cc(OC3CCOCC3)c3c(Nc4c(Cl)ccc5c4OCO5)ncnc3c2)CC1 [saracatinib]
Method in brief: as §1

sotrastaurin = compound: CN1CCN(c2nc(C3=C(c4c[nH]c5ccccc45)C(=O)NC3=O)c3ccccc3n2)CC1 [sotrastaurin]
Method in brief: as §1

alvocidib = compound: CN1CC[C@H](c2c(O)cc(O)c3c(=O)cc(-c4ccccc4Cl)oc23)[C@H](O)C1 [alvocidib]
Method in brief: as §1

Tubastatin A = compound: CN1CCc2c(c3ccccc3n2Cc2ccc(C(=O)NO)cc2)C1 [Tubastatin A]
Method in brief: as §1

[6] = compound: CNC(=O)C1=CC=CC=C1NC2=NC(=NC=C2Cl)NC3=C(C=C(C=C3)N4CCOCC4)OC
Method in brief: as §1

defactinib = compound: CNC(=O)c1ccc(Nc2ncc(C(F)(F)F)c(NCc3nccnc3N(C)S(C)(=O)=O)n2)cc1 [defactinib]
Method in brief: as §1

[7] = compound: CNc1nc(-c2ccc3c(N)n[nH]c3c2)cc(N2C[C@@H](C(=O)NC3CCCCC3)CC[C@H]2C)n1
Method in brief: as §1

encorafenib = compound: COC(=O)N[C@@H](C)CNc1nccc(-c2cn(C(C)C)nc2-c2cc(Cl)cc(NS(C)(=O)=O)c2F)n1 [encorafenib]
Method in brief: as §1

[8] = compound: COC(=O)[C@H](CCSC)NC(=O)C1=C(C=C(C=C1)NC[C@H](CS)N)C2=CC=CC=C2
Method in brief: as §1

alisertib = compound: COc1cc(Nc2ncc3c(n2)-c2ccc(Cl)cc2C(c2c(F)cccc2OC)=NC3)ccc1C(=O)O [alisertib]
Method in brief: as §1

[9] = compound: COc1cc2nc(-c3cc(F)ccc3O)nc(N[C@@H]3CNC[C@H]3C(C)(C)O)c2cc1OC
Method in brief: as §1

gefitinib = compound: COc1cc2ncnc(Nc3ccc(F)c(Cl)c3)c2cc1OCCCN1CCOCC1 [gefitinib]
Method in brief: as §1

Row | Target | log2 fold change (vemurafenib) | log2 fold change [1] | log2 fold change (barasertib) | log2 fold change [2] | log2 fold change (volasertib) | log2 fold change [3] | log2 fold change [4] | log2 fold change [5] | log2 fold change (saracatinib) | log2 fold change (sotrastaurin) | log2 fold change (alvocidib) | log2 fold change (Tubastatin A) | log2 fold change [6] | log2 fold change (defactinib) | log2 fold change [7] | log2 fold change (encorafenib) | log2 fold change [8] | log2 fold change (alisertib) | log2 fold change [9] | log2 fold change (gefitinib)
1 | DMAC2L (UniProt Q99766) | inactive: 0.002 | inactive: 0.026 | inactive: 0.065 | inactive: 0.075 | inactive: -0.028 | inactive: 0.021 | inactive: -0.017 | inactive: 0.053 | inactive: 0.058 | inactive: -0.012 | inactive: 0.029 | inactive: 0 | inactive: -0.056 | inactive: 0.022 | inactive: 0.018 | inactive: 0.016 | active: -1.03 | inactive: 0.074 | inactive: 0.031 | inactive: 0.061
2 | DOCK8 (UniProt Q8NF50) | inactive: 0.005 | inactive: 0.013 | inactive: 0.034 | inactive: -0.075 | inactive: -0.065 | inactive: 0.04 | inactive: 0 | inactive: -0.033 | inactive: 0.012 | inactive: 0.023 | inactive: 0.019 | inactive: -0.098 | inactive: 0.007 | inactive: 0.001 | inactive: -0.073 | inactive: 0.003 | inactive: 0.05 | inactive: -0.01 | inactive: 0.014 | inactive: 0.005
3 | DFFB (UniProt O76075) | inactive: 0.022 | inactive: 0.044 | inactive: -0.064 | inactive: 0.037 | inactive: -0.012 | inactive: 0.1 | inactive: -0.024 | inactive: 0.061 | inactive: 0.042 | inactive: 0.06 | inactive: -0.042 | inactive: -0.007 | inactive: -0.022 | inactive: -0.033 | inactive: -0.022 | inactive: -0.012 | inactive: 0.015 | inactive: -0.006 | inactive: 0.011 | active: 0.231
4 | DNAJC12 (UniProt Q9UKB3) | inactive: -0.021 | inactive: 0.027 | inactive: 0.042 | inactive: 0.132 | inactive: 0.007 | inactive: 0.013 | inactive: -0.006 | inactive: 0.035 | inactive: 0.044 | inactive: -0.052 | inactive: -0.055 | inactive: 0.026 | inactive: 0.008 | inactive: -0.016 | inactive: 0.07 | inactive: 0.078 | inactive: -0.143 | inactive: -0.003 | inactive: -0.022 | inactive: 0.035
5 | DLD (UniProt P09622) | inactive: 0.007 | inactive: 0.003 | inactive: -0.032 | inactive: 0.032 | inactive: 0.057 | inactive: -0.018 | inactive: -0.071 | inactive: 0.04 | inactive: 0.009 | inactive: -0.015 | inactive: -0.024 | inactive: 0.041 | inactive: 0.03 | inactive: -0.02 | inactive: 0.046 | inactive: -0.014 | inactive: -0.13 | inactive: 0 | inactive: 0.008 | inactive: -0.055
6 | DNAJA3 (UniProt Q96EY1) | inactive: 0.038 | inactive: 0.022 | inactive: -0.082 | inactive: -0.023 | inactive: -0.004 | inactive: 0.004 | inactive: -0.003 | inactive: 0.011 | inactive: 0.041 | inactive: 0.002 | inactive: 0.072 | inactive: -0.005 | inactive: 0.017 | inactive: 0.037 | inactive: -0.023 | inactive: 0.015 | inactive: 0.04 | inactive: 0.032 | inactive: -0.037 | inactive: -0.009
7 | DLAT (UniProt P10515) | inactive: -0.004 | inactive: 0.01 | inactive: -0.021 | inactive: -0.036 | inactive: 0.023 | inactive: -0.037 | inactive: -0.037 | inactive: 0.073 | inactive: 0.048 | inactive: -0.003 | inactive: -0.01 | inactive: 0.099 | inactive: -0.047 | inactive: -0.028 | inactive: 0.058 | inactive: -0.019 | inactive: -0.037 | inactive: 0.021 | inactive: 0.031 | inactive: -0.003
8 | DLGAP5 (UniProt Q15398) | inactive: 0.01 | inactive: 0.009 | inactive: 0.007 | inactive: -0.018 | inactive: -0.013 | inactive: 0 | inactive: -0.024 | inactive: 0.019 | inactive: 0.013 | inactive: -0.004 | inactive: -0.007 | inactive: -0.021 | inactive: 0.01 | inactive: 0.004 | inactive: -0.004 | inactive: 0.024 | inactive: 0 | inactive: -0.016 | inactive: -0.02 | inactive: -0.001
9 | DIABLO (UniProt Q9NR28) | inactive: 0.008 | inactive: -0.021 | inactive: 0.202 | inactive: 0.01 | inactive: 0.024 | inactive: 0.006 | inactive: -0.136 | inactive: 0.013 | inactive: 0.039 | inactive: 0.033 | inactive: -0.01 | inactive: 0.035 | inactive: -0.007 | inactive: -0.018 | inactive: 0.013 | inactive: 0.002 | inactive: -0.023 | inactive: 0.001 | inactive: 0.019 | inactive: -0.065
10 | DNAJB14 (UniProt Q8TBM8) | inactive: -0.028 | inactive: -0.02 | inactive: 0.055 | inactive: -0.055 | inactive: 0.047 | inactive: -0.013 | inactive: 0.118 | inactive: 0.021 | inactive: -0.037 | inactive: 0.015 | inactive: -0.014 | inactive: -0.01 | inactive: -0.029 | inactive: 0.019 | inactive: 0.033 | inactive: -0.047 | inactive: -0.096 | inactive: 0.039 | inactive: 0.09 | inactive: -0.026
11 | DHX37 (UniProt Q8IY37) | inactive: 0.051 | inactive: 0.006 | inactive: -0.097 | inactive: -0.071 | inactive: -0.026 | inactive: 0.009 | inactive: 0.104 | inactive: 0 | inactive: 0.067 | inactive: 0.054 | inactive: -0.116 | inactive: -0.057 | inactive: -0.095 | inactive: -0.048 | inactive: -0.163 | inactive: 0.057 | inactive: 0.082 | inactive: -0.019 | inactive: 0.012 | inactive: 0.02
12 | DMXL1 (UniProt Q9Y485) | inactive: 0.024 | inactive: 0.028 | inactive: -0.005 | inactive: 0.015 | inactive: -0.06 | inactive: 0.026 | inactive: -0.017 | inactive: -0.004 | inactive: 0.002 | inactive: 0.023 | inactive: 0.01 | inactive: -0.014 | inactive: 0.019 | inactive: 0.024 | inactive: 0.012 | inactive: 0.055 | inactive: -0.015 | inactive: -0.031 | inactive: 0.009 | inactive: 0.038
13 | DNAJB12 (UniProt Q9NXW2) | inactive: 0.003 | inactive: 0.012 | inactive: 0.075 | inactive: -0.027 | inactive: 0.01 | inactive: -0.017 | inactive: 0.181 | inactive: -0.079 | inactive: 0.106 | inactive: -0.086 | inactive: 0.026 | inactive: 0.021 | inactive: -0.052 | inactive: 0.03 | inactive: 0.038 | inactive: 0.03 | inactive: 0.004 | inactive: -0.031 | inactive: -0.046 | inactive: -0.007
14 | DMXL2 isoform 3 (UniProt Q8TDJ6) | inactive: 0.044 | inactive: 0.003 | inactive: 0.102 | inactive: 0.073 | inactive: -0.058 | inactive: 0.025 | inactive: -0.051 | inactive: 0.059 | inactive: 0.023 | inactive: 0.028 | inactive: 0.035 | inactive: -0.017 | inactive: 0.003 | inactive: 0.044 | inactive: -0.031 | inactive: 0.061 | inactive: 0.05 | inactive: -0.006 | inactive: 0 | inactive: 0.023
15 | DNAJB11 (UniProt Q9UBS4) | inactive: 0.017 | inactive: 0.002 | inactive: -0.003 | inactive: 0.055 | inactive: 0.019 | inactive: -0.018 | inactive: -0.02 | inactive: 0.042 | inactive: 0.027 | inactive: 0.046 | inactive: -0.017 | inactive: 0.064 | inactive: -0.017 | inactive: -0.013 | inactive: 0.017 | inactive: 0.011 | inactive: -0.014 | inactive: 0.047 | inactive: 0.01 | inactive: -0.003
16 | DHRS2 (UniProt Q13268) | inactive: 0.001 | inactive: 0 | inactive: 0.066 | inactive: 0.011 | inactive: 0.028 | inactive: 0.046 | inactive: 0.024 | inactive: -0.118 | inactive: -0.026 | inactive: -0.036 | inactive: 0.07 | inactive: -0.013 | inactive: -0.029 | inactive: 0.012 | inactive: -0.051 | inactive: 0.022 | inactive: -0.091 | inactive: 0.01 | inactive: 0.011 | inactive: 0.097

2 consecutive entries from above, for reference:
Row | Target | log2 fold change (vemurafenib) | log2 fold change [1] | log2 fold change (barasertib) | log2 fold change [2] | log2 fold change (volasertib) | log2 fold change [3] | log2 fold change [4] | log2 fold change [5] | log2 fold change (saracatinib) | log2 fold change (sotrastaurin) | log2 fold change (alvocidib) | log2 fold change (Tubastatin A) | log2 fold change [6] | log2 fold change (defactinib) | log2 fold change [7] | log2 fold change (encorafenib) | log2 fold change [8] | log2 fold change (alisertib) | log2 fold change [9] | log2 fold change (gefitinib)
2 | DOCK8 (UniProt Q8NF50) | inactive: 0.005 | inactive: 0.013 | inactive: 0.034 | inactive: -0.075 | inactive: -0.065 | inactive: 0.04 | inactive: 0 | inactive: -0.033 | inactive: 0.012 | inactive: 0.023 | inactive: 0.019 | inactive: -0.098 | inactive: 0.007 | inactive: 0.001 | inactive: -0.073 | inactive: 0.003 | inactive: 0.05 | inactive: -0.01 | inactive: 0.014 | inactive: 0.005
3 | DFFB (UniProt O76075) | inactive: 0.022 | inactive: 0.044 | inactive: -0.064 | inactive: 0.037 | inactive: -0.012 | inactive: 0.1 | inactive: -0.024 | inactive: 0.061 | inactive: 0.042 | inactive: 0.06 | inactive: -0.042 | inactive: -0.007 | inactive: -0.022 | inactive: -0.033 | inactive: -0.022 | inactive: -0.012 | inactive: 0.015 | inactive: -0.006 | inactive: 0.011 | active: 0.231
